The chains are these.
B1: P1-D2 CHI (antibody, human IgG1, kappa, V domains shown)
VH: EFQLQQSGPELVKPGASVKISCKASGYSFTDHNMNWVKQSNGKSLEWIGVINPKYGTISNNQKFKGKATLTVDQSSSTAYMQLNSLTAEDSAVYYCARDDYPNYFDYWGQGTTLTVSS
VL: QIVLTQSPAIMSASPGEKVTISCSANSSVNYIYWYQQKPGSSPKPWIYRTSNLASGVPARFSGSGSGTSYSLTISSMEAEDAATYYCQQYHSFPPTFGGGTKLEIKR
B2: P3-C7 CHI (antibody, human IgG1, kappa, V domains shown)
VH: EVQLQQSGPVLLKPGASVKMSCKASGYTFTDHYIHWVKLSHGKSLEWIGVINPYNDGATYNQKFKGKATLTVDKSSSTAYMELNSLTSEDSAVYYCARPPRAYGNYAGYWGQGTTLTVSS
VL: DVVMTQTPLSLPVSLGDQASISCRSSQSLVHSNGNTYLHWYLQKPGQSPKLLIYKVSNRFSGVPDRFIGSGSRTDFTLKISRVEAEDLGVYFCSQSTHVPYTFGGGTRLEIKR
B3: P1-C6 CHI (antibody, human IgG1, kappa, V domains shown)
VH: QVQLQQSGAELARPGASVKLSCKASGYTFTSYGITWVKRRTGQGLGWIGEIYPRSGNTYYNEKFKGKATLTADKSSSTAYMELRSLTSEDSAVYFCARAITTVVGDWYFDVWGTGTTVTVSS
VL: DIVLTQSPASLAMSLGKRATISCRASESVSLIGTNLIHWYQQKPGQPPKLLIHHASNLEAGVPARFSGSGSRTDFTLTIDPVEEDDVAIYYCLQSRKIRTFGGGTKLEIKR
B4: P1-D3 CHI (antibody, human IgG1, kappa, V domains shown)
VH: QIQLIQSGPELKKPGETVKISCKASGYTFTTYGMSWVKQAPGKGLKWMGWINTYSGVPTYADDFKGRFAFSLETSANTAYLQINNLKNEDTATYFCARRGYSNLYYYALDYWGQGASVTVSS
VL: QIVLTQSPAIMSASPGEKVTMTCSASSSVNYMHWYQQKSGTSPKRWIYDTSKLASGVPTRFSGSGSGTSYSLTISSMEAEDAATYFCQQWSSNPSTFGGGTKLEIKR
B5: P1-D9 CHI (antibody, human IgG1, kappa, V domains shown)
VH: EVQLVESGGGLVKPGGSLKLSCAASGFSFSDYGMHWVRQAPEKGLEWIAHISSGSSTIYYADTVKGRFTISRDNAKNTLFLQMTSLRSEDTAMYYCARSRNYYGSRIFDYWGQGTTLTVSS
VL: QIVLTQSPARMSASPGEKVTMTCSASSSVSYMYWYQQKPRSSPKPWIYLTSNLASGVPARFSGSGSGTSYSLTISSMEAEDAATYYCQQWSSNPPTFGSGTKLEIKR
B6: P3-B4 CHI (antibody, human IgG1, kappa, V domains shown)
VH: B4 VH with I5V, T17I, N77S, G100A, Y101G, N103S, L109M, A116T
VL: B4 VL with N30S, H33L, T59A, F86Y, S95P
B7: P1-F10 CHI (antibody, human IgG1, kappa, V domains shown)
VH: B5 VH with S28A, I48V, A75V, I107V, T116P
VL: B5 VL with R10L, A13V, S30N, S91N
B8: P3-D9 CHI (antibody, human IgG1, kappa, V domains shown)
VH: B5 VH with S28A, I48V, A61G, A97T, I107V
VL: B5 VL with R10L, A13V, N52S, S75N, S76N, M77V, L103V
B9: P3-E4 CHI (antibody, human IgG1, kappa, V domains shown)
VH: QVQLQQPGAELVMPGAAVKLSCKASGYTFINYWMHWLKQRPGQGLEWIGEIDPSDGYTDYNQKFKGKATLTVDKSSSTAYMQLSSLTSEDSAVYYCAISLRGPITFGPFPYWGQGTLVTVSS
VL: DIVLTQSPASLAVSLGQRATISCRASESVSIHGTHLMHWYQQKPGQPPKLLIYAASNLESGVPARFSGSGSETDFTLNIHPVAEEDAATYFCQHSIEDPRTFGGGTKLEIKR

Residue numbers refer to the chain shown, from its start. Results are given in words; binding and its absence hold for the method and conditions named. A result given as binding can be weak or reduced; the word gives no strength.

For this test, the target named is cynoGUCY2C ECD-His (ACRO #GUC-C52H6) (cynomolgus monkey). Description: screening of chimeric antibodies, SPR and cell binding.
Consider B1, for which the binding entry is “binds”.
On to B2, for which the binding entry is on record as “binds”.
Under B3 stands “binds”; under B4, “binds”.
On to B5, for which the binding result is “binds”.
The entry for B6 is “binds”; for B7 it is “binds”.
Under B8 stands “binds”.
Under B9 stands “binds”.

Source of the values: US20260028421A1.
